Data published in publication PMC11084340.
These are yes or no findings as the source states them, for the method shown. In cells and extracts the contact can be indirect. Some binding calls cover weakened binding; strength is not graded here. Each block holds one molecule with its values, some of them ahead of it.

Chains of the proteins cited; added tags and fusions are not shown.
UniProt Q96PU5: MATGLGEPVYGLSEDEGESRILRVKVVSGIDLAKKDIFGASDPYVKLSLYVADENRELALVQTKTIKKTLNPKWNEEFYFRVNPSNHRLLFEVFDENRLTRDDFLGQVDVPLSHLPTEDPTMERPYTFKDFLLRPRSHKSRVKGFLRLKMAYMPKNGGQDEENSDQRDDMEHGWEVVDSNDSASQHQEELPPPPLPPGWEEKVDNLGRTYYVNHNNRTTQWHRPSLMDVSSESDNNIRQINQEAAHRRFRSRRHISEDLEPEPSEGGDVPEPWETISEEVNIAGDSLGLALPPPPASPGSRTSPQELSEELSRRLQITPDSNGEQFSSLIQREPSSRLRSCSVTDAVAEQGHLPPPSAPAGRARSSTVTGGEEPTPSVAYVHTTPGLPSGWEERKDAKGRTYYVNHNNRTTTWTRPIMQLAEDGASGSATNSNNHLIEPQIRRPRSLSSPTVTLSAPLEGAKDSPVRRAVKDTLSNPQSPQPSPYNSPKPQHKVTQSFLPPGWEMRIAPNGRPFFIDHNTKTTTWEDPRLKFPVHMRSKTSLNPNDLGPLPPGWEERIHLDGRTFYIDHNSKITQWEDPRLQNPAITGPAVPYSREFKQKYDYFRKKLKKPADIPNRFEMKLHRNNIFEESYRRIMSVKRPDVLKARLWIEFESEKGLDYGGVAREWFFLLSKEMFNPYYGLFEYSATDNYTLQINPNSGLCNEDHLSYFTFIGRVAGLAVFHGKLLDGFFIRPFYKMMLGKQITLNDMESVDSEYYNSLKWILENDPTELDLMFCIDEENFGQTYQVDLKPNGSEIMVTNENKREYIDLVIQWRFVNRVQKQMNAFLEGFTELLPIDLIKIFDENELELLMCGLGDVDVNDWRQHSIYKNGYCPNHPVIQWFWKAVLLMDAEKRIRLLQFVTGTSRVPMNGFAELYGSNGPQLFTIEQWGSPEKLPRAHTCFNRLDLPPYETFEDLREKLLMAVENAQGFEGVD
UniProt Q03135: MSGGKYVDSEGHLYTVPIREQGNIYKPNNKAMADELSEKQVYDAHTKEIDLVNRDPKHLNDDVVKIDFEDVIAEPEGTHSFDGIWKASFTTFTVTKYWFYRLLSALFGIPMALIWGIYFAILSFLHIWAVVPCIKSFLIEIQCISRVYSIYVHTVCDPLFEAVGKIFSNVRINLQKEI
UniProt O00141: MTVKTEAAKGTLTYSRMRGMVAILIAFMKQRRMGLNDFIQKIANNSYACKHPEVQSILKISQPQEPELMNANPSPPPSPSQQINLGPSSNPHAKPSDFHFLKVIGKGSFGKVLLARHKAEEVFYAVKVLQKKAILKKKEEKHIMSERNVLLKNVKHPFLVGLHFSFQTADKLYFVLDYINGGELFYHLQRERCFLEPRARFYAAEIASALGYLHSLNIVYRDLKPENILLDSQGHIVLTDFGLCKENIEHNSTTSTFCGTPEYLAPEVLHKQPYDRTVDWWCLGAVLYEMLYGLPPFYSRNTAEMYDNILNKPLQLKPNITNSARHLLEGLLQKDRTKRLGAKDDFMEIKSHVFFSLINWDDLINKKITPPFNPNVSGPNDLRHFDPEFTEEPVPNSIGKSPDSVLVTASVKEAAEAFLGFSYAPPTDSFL

Assays:
Assay in all cases: co-IP; endogenous proteins precipitated from whole lysates of neutrophils from patients with HTN and NTI; 2x lysis buffer 2 mM EGTA, 100 mM HEPES, 150 mM NaCl, 2% NP40, pH 7.4, protease inhibitors; antibody 2 h at 4 °C, A/G agarose beads overnight; immunoblot; irrelevant antibody (IgG0) as control
[1] = molecular target: T1, epithelial sodium channel (ENaC) α subunit (human (endogenous in neutrophils)) (UniProt P37088)
T1 sequence: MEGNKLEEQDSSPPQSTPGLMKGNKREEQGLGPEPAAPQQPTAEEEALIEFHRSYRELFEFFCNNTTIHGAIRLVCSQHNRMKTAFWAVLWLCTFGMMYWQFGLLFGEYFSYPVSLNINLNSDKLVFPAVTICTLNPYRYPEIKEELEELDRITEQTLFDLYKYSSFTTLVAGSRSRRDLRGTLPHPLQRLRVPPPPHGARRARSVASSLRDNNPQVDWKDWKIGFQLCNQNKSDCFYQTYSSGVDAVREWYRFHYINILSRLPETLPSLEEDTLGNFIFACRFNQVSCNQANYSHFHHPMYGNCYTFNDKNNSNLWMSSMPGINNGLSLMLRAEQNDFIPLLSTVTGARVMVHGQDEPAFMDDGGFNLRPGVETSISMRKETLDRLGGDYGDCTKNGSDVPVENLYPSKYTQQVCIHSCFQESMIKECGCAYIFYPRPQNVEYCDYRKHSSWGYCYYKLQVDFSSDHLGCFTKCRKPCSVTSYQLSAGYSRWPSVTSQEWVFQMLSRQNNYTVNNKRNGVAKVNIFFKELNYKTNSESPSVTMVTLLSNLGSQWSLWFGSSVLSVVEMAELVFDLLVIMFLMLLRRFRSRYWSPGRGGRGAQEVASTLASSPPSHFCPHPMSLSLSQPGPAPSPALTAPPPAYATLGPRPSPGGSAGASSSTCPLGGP

[2] = molecular target: NEDD4-2 (human (endogenous in neutrophils)) (UniProt Q96PU5)
[3] = molecular target: caveolin-1 (human (endogenous in neutrophils)) (UniProt Q03135)
[4] = molecular target: T2, vacuolar protein sorting protein 37 B (human (endogenous in neutrophils)) (UniProt Q9H9H4)
T2 sequence: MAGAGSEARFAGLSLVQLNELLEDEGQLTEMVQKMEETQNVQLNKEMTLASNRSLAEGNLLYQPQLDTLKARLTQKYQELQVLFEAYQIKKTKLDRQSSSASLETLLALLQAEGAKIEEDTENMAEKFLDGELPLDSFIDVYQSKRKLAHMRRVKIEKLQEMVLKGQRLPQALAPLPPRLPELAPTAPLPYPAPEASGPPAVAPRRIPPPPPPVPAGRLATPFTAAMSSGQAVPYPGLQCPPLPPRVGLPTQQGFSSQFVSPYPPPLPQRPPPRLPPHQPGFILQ

- binding [1]: binds
Molecule: caveolin-1 (from UniProt Q03135 1-178)

- binding [2]: binds
Molecule: serum- and glucocorticoid-regulated kinase-1 (from UniProt O00141 1-431) (enzyme)

- binding [1]: binds
B1: vacuolar protein sorting protein 37 B (protein, UniProt Q9H9H4 1-285)
chain: MAGAGSEARFAGLSLVQLNELLEDEGQLTEMVQKMEETQNVQLNKEMTLASNRSLAEGNLLYQPQLDTLKARLTQKYQELQVLFEAYQIKKTKLDRQSSSASLETLLALLQAEGAKIEEDTENMAEKFLDGELPLDSFIDVYQSKRKLAHMRRVKIEKLQEMVLKGQRLPQALAPLPPRLPELAPTAPLPYPAPEASGPPAVAPRRIPPPPPPVPAGRLATPFTAAMSSGQAVPYPGLQCPPLPPRVGLPTQQGFSSQFVSPYPPPLPQRPPPRLPPHQPGFILQ

- binding [3]: binds
- binding [4]: binds
B2: epithelial sodium channel (ENaC) α subunit (protein, UniProt P37088 1-669)
chain: MEGNKLEEQDSSPPQSTPGLMKGNKREEQGLGPEPAAPQQPTAEEEALIEFHRSYRELFEFFCNNTTIHGAIRLVCSQHNRMKTAFWAVLWLCTFGMMYWQFGLLFGEYFSYPVSLNINLNSDKLVFPAVTICTLNPYRYPEIKEELEELDRITEQTLFDLYKYSSFTTLVAGSRSRRDLRGTLPHPLQRLRVPPPPHGARRARSVASSLRDNNPQVDWKDWKIGFQLCNQNKSDCFYQTYSSGVDAVREWYRFHYINILSRLPETLPSLEEDTLGNFIFACRFNQVSCNQANYSHFHHPMYGNCYTFNDKNNSNLWMSSMPGINNGLSLMLRAEQNDFIPLLSTVTGARVMVHGQDEPAFMDDGGFNLRPGVETSISMRKETLDRLGGDYGDCTKNGSDVPVENLYPSKYTQQVCIHSCFQESMIKECGCAYIFYPRPQNVEYCDYRKHSSWGYCYYKLQVDFSSDHLGCFTKCRKPCSVTSYQLSAGYSRWPSVTSQEWVFQMLSRQNNYTVNNKRNGVAKVNIFFKELNYKTNSESPSVTMVTLLSNLGSQWSLWFGSSVLSVVEMAELVFDLLVIMFLMLLRRFRSRYWSPGRGGRGAQEVASTLASSPPSHFCPHPMSLSLSQPGPAPSPALTAPPPAYATLGPRPSPGGSAGASSSTCPLGGP
